Experimental data published in article doi:10.1101/2022.06.21.497003.
No constants are given. Whether binding was seen depends on the method and setting. Binding seen in cells or lysates may run through a third protein. Some entries that bind do so weakly or less than the wild type. Where a sequence is shown, tags or fusion partners need not be part of it.

T1: 3HA-DAR3 (Arabidopsis thaliana) (UniProt Q9LVR6)
T1 sequence: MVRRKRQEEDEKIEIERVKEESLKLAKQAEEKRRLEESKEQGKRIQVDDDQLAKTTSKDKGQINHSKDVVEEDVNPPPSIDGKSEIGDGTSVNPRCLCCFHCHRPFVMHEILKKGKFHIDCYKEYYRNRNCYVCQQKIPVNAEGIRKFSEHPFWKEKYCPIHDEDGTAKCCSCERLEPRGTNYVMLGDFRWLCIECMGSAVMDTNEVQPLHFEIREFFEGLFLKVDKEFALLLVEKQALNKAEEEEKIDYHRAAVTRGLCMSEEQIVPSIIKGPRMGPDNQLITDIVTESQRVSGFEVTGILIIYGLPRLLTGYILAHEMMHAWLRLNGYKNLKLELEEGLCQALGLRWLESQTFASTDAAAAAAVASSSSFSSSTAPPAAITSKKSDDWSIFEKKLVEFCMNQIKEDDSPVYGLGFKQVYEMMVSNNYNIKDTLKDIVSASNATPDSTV


What follows are binders tested against T1, 3HA-DAR3 (Arabidopsis thaliana) (assay: co-IP).

| Binder | binding |
| --- | --- |
| 3HA-DAR3 (protein, UniProt Q9LVR6 1-450) MVRRKRQEEDEKIEIERVKEESLKLAKQAEEKRRLEESKEQGKRIQVDDDQLAKTTSKDKGQINHSKDVVEEDVNPPPSIDGKSEIGDGTSVNPRCLCCFHCHRPFVMHEILKKGKFHIDCYKEYYRNRNCYVCQQKIPVNAEGIRKFSEHPFWKEKYCPIHDEDGTAKCCSCERLEPRGTNYVMLGDFRWLCIECMGSAVMDTNEVQPLHFEIREFFEGLFLKVDKEFALLLVEKQALNKAEEEEKIDYHRAAVTRGLCMSEEQIVPSIIKGPRMGPDNQLITDIVTESQRVSGFEVTGILIIYGLPRLLTGYILAHEMMHAWLRLNGYKNLKLELEEGLCQALGLRWLESQTFASTDAAAAAAVASSSSFSSSTAPPAAITSKKSDDWSIFEKKLVEFCMNQIKEDDSPVYGLGFKQVYEMMVSNNYNIKDTLKDIVSASNATPDSTV | binds |
| DA1-3FLAG (protein, UniProt P0C7Q8 1-532) MGWFNKIFKGSNQRLRVGNNKHNHNVYYDNYPTASHDDEPSAADTDADNDEPHHTQEPSTSEDNTSNDQENEDIDRAIALSLLEENQEQTSISGKYSMPVDEDEQLARALQESMVVGNSPRHKSGSTYDNGNAYGAGDLYGNGHMYGGGNVYANGDIYYPRPITFQMDFRICAGCNMEIGHGRFLNCLNSLWHPECFRCYGCSQPISEYEFSTSGNYPFHKACYRERYHPKCDVCSHFIPTNHAGLIEYRAHPFWVQKYCPSHEHDATPRCCSCERMEPRNTRYVELNDGRKLCLECLDSAVMDTMQCQPLYLQIQNFYEGLNMKVEQEVPLLLVERQALNEAREGEKNGHYHMPETRGLCLSEEQTVSTVRKRSKHGTGKWAGNITEPYKLTRQCEVTAILILFGLPRLLTGSILAHEMMHAWMRLKGFRTLSQDVEEGICQVMAHKWLDAELAAGSTNSNAASSSSSSQGLKKGPRSQYERKLGEFFKHQIESDASPVYGDGFRAGRLAVHKYGLRKTLEHIQMTGRFPV | binds |
| DAR1-3FLAG (protein, UniProt Q8W4F0 1-553) MGWLTKILKGSSHKFSDGQCNGRYREDRNLEGPRYSAEGSDFDKEEIECAIALSLSEQEHVIPQDDKGKKIIEYKSETEEDDDDDEDEDEEYMRAQLEAAEEEERRVAQAQIEEEEKRRAEAQLEETEKLLAKARLEEEEMRRSKAQLEEDELLAKALQESMNVGSPPRYDPGNILQPYPFLIPSSHRICVGCQAEIGHGRFLSCMGGVWHPECFCCNACDKPIIDYEFSMSGNRPYHKLCYKEQHHPKCDVCHNFIPTNPAGLIEYRAHPFWMQKYCPSHERDGTPRCCSCERMEPKDTKYLILDDGRKLCLECLDSAIMDTHECQPLYLEIREFYEGLHMKVEQQIPMLLVERSALNEAMEGEKHGHHHLPETRGLCLSEEQTVTTVLRRPRIGAGYKLIDMITEPCRLIRRCEVTAILILYGLPRLLTGSILAHEMMHAWLRLNGYPNLRPEVEEGICQVLAHMWLESETYAGSTLVDIASSSSSAVVSASSKKGERSDFEKKLGEFFKHQIESDSSSAYGDGFRQGNQAVLKHGLRRTLDHIRLTGTFP | binds |
| DAR2-3FLAG (protein, UniProt Q0WSN2 1-528) MDSSSSSSSSSPSSSYGVARVSHISNPCIFGEVGSSSSSTYRDKKWKLMKWVSKLFKSGSNGGGSGAHTNHHPPQFQEDENMVFPLPPSSLDDRSRGARDKEELDRSISLSLADNTKRPHGYGWSMDNNRDFPRPFHGGLNPSSFIPPYEPSYQYRRRQRICGGCNSDIGSGNYLGCMGTFFHPECFRCHSCGYAITEHEFSLSGTKPYHKLCFKELTHPKCEVCHHFIPTNDAGLIEYRCHPFWNQKYCPSHEYDKTARCCSCERLESWDVRYYTLEDGRSLCLECMETAITDTGECQPLYHAIRDYYEGMYMKLDQQIPMLLVQREALNDAIVGEKNGYHHMPETRGLCLSEEQTVTSVLRRPRLGAHRLVGMRTQPQRLTRKCEVTAILVLYGLPRLLTGAILAHELMHGWLRLNGFRNLNPEVEEGICQVLSYMWLESEVLSDPSTRNLPSTSSVATSSSSSFSNKKGGKSNVEKKLGEFFKHQIAHDASPAYGGGFRAANAAACKYGLRRTLDHIRLTGTFPL | binds |
